Laboratory results reported in the supplement of paper PMC11732987, “Enantioselective OTUD7B fragment discovery through chemoproteomics screening and high-throughput optimisation” (Communications Chemistry, 2025).
The list shows a part of the results. The data scatter; read single values as rough.

Sequences of proteins named here, by UniProt entry; tags and fusion partners are left off. A change or cut given only in a name is not applied to a line headed by its entry. Residues count along the entry.
UniProt Q96RN5: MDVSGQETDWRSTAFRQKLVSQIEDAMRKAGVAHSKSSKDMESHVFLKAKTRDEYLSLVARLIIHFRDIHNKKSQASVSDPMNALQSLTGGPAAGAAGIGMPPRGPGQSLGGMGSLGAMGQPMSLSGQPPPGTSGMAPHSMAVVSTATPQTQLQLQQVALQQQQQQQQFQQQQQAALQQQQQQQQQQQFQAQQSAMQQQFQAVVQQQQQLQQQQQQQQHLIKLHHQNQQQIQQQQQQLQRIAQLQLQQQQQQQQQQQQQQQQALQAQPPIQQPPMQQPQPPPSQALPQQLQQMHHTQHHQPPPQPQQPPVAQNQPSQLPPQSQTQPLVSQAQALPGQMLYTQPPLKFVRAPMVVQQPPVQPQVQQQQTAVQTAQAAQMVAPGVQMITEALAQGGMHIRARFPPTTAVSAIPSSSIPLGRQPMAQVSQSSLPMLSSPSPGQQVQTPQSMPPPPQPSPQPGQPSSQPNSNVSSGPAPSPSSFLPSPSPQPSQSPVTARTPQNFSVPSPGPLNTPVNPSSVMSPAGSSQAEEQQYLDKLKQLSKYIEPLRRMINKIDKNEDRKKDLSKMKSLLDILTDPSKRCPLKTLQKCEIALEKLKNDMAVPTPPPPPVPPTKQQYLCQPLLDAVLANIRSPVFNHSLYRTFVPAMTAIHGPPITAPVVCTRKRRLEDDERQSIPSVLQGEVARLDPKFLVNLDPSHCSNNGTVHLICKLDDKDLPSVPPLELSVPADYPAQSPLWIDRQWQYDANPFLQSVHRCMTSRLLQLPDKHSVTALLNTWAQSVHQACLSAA
UniProt Q86VX9: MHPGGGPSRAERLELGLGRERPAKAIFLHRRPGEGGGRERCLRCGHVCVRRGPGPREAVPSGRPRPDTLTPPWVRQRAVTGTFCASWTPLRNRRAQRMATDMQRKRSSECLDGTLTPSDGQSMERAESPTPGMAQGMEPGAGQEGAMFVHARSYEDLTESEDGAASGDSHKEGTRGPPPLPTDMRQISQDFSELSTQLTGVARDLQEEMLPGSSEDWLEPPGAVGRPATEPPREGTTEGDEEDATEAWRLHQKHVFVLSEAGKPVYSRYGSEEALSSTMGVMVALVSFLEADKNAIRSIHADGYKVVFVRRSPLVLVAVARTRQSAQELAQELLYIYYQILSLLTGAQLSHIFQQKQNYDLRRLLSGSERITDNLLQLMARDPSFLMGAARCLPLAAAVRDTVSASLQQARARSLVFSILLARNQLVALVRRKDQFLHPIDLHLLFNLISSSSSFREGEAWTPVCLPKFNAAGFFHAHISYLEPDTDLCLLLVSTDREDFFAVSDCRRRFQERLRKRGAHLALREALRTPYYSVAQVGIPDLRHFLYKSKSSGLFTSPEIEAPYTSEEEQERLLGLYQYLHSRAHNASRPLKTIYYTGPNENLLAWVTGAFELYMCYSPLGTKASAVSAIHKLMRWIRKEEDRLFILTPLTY
UniProt Q9NU22, 5028-5056: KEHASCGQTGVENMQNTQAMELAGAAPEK
UniProt Q9NU22, 1108-1130: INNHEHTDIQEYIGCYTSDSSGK
UniProt Q7Z3U7: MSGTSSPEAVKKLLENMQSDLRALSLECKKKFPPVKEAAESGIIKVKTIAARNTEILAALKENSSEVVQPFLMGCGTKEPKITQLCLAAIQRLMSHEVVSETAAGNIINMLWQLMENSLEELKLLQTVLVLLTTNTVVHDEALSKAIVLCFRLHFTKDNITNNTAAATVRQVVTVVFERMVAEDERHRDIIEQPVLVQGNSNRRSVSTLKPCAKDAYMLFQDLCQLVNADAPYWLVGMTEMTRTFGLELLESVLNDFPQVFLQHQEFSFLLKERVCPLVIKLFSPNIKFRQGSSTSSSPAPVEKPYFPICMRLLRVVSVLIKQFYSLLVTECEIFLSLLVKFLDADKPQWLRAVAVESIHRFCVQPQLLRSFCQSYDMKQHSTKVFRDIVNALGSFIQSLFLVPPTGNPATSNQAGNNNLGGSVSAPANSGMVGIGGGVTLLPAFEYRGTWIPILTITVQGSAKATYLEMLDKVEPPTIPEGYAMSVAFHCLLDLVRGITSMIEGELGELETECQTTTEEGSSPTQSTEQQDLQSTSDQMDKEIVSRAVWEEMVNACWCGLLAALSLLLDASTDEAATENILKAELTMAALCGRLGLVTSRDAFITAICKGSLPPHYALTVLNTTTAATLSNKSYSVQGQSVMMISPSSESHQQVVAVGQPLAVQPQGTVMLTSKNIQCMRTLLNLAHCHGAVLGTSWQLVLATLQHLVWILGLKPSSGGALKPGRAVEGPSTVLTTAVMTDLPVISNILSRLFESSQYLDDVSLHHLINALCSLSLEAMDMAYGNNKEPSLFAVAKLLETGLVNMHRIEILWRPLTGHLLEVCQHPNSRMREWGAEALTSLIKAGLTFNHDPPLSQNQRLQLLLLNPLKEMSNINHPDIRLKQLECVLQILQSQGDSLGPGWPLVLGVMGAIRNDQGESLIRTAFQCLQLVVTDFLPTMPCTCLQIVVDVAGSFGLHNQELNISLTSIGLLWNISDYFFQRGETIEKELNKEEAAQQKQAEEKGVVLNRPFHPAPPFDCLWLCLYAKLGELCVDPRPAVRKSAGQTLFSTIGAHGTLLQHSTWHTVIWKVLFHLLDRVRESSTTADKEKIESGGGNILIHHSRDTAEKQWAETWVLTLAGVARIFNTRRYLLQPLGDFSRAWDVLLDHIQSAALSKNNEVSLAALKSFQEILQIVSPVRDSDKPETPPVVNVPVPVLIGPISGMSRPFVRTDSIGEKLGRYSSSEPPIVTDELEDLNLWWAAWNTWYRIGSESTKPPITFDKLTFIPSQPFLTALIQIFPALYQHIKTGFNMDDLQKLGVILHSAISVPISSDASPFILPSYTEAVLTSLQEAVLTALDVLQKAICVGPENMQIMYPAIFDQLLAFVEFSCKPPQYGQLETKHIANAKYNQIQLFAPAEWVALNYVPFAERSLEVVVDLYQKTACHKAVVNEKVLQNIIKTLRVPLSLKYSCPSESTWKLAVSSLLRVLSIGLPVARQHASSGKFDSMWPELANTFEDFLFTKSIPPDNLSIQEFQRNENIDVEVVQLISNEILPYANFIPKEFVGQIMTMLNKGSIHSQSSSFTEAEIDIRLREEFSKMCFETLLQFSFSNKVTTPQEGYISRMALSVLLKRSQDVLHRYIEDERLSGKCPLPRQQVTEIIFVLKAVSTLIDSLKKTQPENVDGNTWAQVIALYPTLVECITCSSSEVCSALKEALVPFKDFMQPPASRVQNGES
UniProt Q99549: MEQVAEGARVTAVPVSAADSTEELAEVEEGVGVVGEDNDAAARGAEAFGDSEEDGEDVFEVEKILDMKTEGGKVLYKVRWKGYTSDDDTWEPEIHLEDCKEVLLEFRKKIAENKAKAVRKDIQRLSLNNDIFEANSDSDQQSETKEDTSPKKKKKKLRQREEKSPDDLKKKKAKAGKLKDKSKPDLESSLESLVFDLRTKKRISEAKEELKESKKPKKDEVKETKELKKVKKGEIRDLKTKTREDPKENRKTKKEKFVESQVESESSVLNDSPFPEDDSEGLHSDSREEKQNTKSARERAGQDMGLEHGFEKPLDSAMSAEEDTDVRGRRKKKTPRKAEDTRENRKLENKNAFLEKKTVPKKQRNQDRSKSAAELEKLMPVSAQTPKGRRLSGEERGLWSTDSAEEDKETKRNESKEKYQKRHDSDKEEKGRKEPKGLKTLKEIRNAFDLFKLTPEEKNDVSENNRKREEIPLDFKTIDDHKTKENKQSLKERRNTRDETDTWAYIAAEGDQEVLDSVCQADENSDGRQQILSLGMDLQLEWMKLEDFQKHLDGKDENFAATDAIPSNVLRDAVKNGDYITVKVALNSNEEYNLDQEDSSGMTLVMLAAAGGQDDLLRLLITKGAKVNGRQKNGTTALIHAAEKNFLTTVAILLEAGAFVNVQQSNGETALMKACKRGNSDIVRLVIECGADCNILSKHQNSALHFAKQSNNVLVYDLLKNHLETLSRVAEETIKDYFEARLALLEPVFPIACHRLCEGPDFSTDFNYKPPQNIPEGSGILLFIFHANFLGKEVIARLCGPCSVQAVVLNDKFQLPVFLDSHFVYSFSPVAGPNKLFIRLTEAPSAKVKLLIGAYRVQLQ
UniProt Q86U44, 489-508: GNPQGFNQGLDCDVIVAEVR
UniProt Q9UHV7: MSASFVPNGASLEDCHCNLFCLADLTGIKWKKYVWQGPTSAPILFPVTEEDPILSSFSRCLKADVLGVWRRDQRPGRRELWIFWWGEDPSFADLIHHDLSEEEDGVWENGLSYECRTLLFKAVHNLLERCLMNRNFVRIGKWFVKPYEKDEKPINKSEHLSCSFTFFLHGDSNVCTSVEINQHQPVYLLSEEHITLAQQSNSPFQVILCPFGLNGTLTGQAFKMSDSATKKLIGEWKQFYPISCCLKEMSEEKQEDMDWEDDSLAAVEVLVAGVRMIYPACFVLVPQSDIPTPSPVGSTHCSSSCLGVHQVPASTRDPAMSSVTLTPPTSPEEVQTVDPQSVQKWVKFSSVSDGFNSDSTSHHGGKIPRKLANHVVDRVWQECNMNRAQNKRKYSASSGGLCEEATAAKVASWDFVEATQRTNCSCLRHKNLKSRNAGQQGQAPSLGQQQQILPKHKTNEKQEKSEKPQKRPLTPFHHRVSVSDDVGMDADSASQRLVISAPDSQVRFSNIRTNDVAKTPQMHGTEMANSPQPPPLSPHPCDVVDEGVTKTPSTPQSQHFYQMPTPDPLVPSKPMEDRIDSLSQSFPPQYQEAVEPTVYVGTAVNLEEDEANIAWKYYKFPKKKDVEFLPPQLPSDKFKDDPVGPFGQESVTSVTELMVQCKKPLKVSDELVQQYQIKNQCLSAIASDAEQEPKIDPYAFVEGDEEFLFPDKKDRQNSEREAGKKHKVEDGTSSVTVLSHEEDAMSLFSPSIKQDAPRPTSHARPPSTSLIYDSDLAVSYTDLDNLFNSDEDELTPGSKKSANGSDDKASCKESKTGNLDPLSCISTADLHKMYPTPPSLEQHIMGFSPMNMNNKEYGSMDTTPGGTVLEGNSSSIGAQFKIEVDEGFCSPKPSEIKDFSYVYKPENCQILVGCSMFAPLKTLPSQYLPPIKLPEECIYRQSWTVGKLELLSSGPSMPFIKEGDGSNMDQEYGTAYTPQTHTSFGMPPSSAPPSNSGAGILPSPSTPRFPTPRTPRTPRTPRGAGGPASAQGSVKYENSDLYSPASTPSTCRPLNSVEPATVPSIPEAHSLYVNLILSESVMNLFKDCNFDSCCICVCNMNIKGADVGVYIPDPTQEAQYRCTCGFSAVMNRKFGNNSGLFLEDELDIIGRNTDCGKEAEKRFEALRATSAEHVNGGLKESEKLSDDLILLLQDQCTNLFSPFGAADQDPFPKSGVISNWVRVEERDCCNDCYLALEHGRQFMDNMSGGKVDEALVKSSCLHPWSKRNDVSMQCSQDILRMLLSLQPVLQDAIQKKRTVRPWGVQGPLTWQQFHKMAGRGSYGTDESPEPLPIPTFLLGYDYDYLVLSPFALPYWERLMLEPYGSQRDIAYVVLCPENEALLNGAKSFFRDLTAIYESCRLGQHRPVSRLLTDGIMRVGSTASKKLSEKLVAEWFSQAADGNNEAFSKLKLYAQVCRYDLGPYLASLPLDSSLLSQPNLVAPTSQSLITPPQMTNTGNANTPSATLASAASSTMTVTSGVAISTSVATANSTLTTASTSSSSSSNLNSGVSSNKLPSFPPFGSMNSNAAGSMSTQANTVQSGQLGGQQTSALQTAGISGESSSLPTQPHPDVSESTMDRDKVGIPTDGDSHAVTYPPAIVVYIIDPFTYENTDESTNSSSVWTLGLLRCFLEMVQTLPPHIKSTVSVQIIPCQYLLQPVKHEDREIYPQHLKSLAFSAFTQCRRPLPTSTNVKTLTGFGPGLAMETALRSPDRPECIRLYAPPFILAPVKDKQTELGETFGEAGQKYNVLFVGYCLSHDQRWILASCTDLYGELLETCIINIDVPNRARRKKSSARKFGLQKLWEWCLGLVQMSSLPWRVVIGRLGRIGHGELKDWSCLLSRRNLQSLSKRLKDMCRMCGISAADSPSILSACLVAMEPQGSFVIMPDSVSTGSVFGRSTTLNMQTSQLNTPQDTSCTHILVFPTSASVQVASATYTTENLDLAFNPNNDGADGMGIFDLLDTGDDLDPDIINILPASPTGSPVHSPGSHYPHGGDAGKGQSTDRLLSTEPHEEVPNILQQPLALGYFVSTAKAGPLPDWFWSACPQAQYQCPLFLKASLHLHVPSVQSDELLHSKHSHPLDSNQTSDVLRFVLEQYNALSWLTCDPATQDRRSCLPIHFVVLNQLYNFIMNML
UniProt Q96G25: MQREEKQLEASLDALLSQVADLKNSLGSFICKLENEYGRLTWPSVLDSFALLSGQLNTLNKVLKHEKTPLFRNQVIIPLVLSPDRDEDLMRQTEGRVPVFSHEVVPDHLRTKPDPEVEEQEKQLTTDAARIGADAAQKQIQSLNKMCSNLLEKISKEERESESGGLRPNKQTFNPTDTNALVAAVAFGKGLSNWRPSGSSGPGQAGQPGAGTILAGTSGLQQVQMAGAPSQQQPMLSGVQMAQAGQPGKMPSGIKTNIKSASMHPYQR

What was measured:
[1] = compound: ClCC(=O)N[C@@H]1CCCc2ccccc12; experiment: log2 mean competition ratio of IA-DTB cysteine labelling (DMSO/compound) (log2 ratio); higher = stronger cysteine engagement by compound; conditions: treatment time: 4 h, cell line lysate: HEK293T
Description: (§1)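 IA-DTB competitive cysteine chemoproteomics in HEK293T RIPA lysate. Lysates were treated with compound 29 or 30 at 50 or 200 µM for 4 h, then IA-DTB (500 µM, 1 h), trypsin-digested, NeutrAvidin-enriched and analysed by diaPASEF. Competition ratio = intensity DMSO / intensity compound (n=4 treated, n=64 DMSO); binding: mean log2 CR ≥ 1 and p ≤ 0.05 plus QC filters. Target is the cysteine site.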

[2] = compound: ClCC(=O)N[C@H]1CCCc2ccccc12; experiment: as above; conditions: treatment time: 4 h, cell line lysate: HEK293T
Description: as §1

| Target | log2 mean competition ratio ([1]; 50 µM) | log2 mean competition ratio ([1]; 200 µM) | log2 mean competition ratio ([2]; 50 µM) | log2 mean competition ratio ([2]; 200 µM) |
| --- | --- | --- | --- | --- |
| MED15 C588 (UniProt Q96RN5) | -0.0171 | 0.0591 | 0.245 | 0.0847 |
| MMS19 C549 (UniProt Q96T76) | -0.292 | 0.454 | -0.286 | 0.347 |
| MED28 C93 (UniProt Q9H204) | 0.181 | -0.124 | 0.495 | 0.0154 |
| MON1A C465 (UniProt Q86VX9) | -0.153 | -0.543 | 0.101 | -0.312 |
| MORF4L2 C165 (UniProt Q15014) | -0.261 | 0.397 | -0.276 | 0.301 |
| MDN1 C309 (UniProt Q9NU22) | 0.129 | 0.0183 | 0.486 | 0.0935 |
| MON2 C609 (UniProt Q7Z3U7) | -0.0505 | -0.0363 | 0.343 | 0.0904 |
| MPRIP C724 (UniProt Q6WCQ1) | 0.219 | -0.0147 | 0.00642 | 0.074 |
| MDN1 C4259 (UniProt Q9NU22) | -0.0355 | -0.173 | -0.658 | -0.317 |
| MIGA1 C240 | -0.56 | 0.333 | -0.162 | 0.334 |
| MPHOSPH8 C753 (UniProt Q99549) | 0.071 | -0.0927 | -0.215 | -0.0322 |
| MLH1 C233 (UniProt P40692) | -0.218 | -0.0821 | -0.275 | 0.111 |
| MED7 C223 (UniProt O43513) | -0.0777 | 0.187 | -0.0376 | -0.299 |
| MECP2 C429 (UniProt P51608) | -0.152 | -0.116 | -0.057 | 0.0286 |
| MDN1 C5033 (UniProt Q9NU22) | 0.0447 | -0.173 | 0.0175 | -0.123 |
| MECR C263 (UniProt Q9BV79) | 0.109 | 0.0499 | 0.179 | 0.0702 |
| METTL3 C500 (UniProt Q86U44) | 0.282 | 0.171 | 0.331 | -0.165 |
| MED12 C83 (UniProt Q93074) | -0.0959 | 0.00504 | -0.0319 | 0.000964 |
| MOB4 C134 (UniProt Q9Y3A3) | 0.172 | -0.0118 | 0.0656 | -0.0457 |
| MELK C649 (UniProt Q14680) | -0.0378 | -0.122 | 0.378 | 0.259 |
| MDN1 C1122 (UniProt Q9NU22) | 0.00904 | -0.0828 | -0.418 | -0.159 |
| MED13 C1756 (UniProt Q9UHV7) | 0.022 | 0.143 | 0.0632 | 0.211 |
| MIEF1 C165 | -0.154 | -0.0276 | -0.0181 | -0.0301 |
| MED8 C31 (UniProt Q96G25) | -0.0335 | -0.258 | 0.506 | -0.252 |

Full records as entered above. Order of values: log2 mean competition ratio ([1]; 50 µM)	log2 mean competition ratio ([1]; 200 µM)	log2 mean competition ratio ([2]; 50 µM)	log2 mean competition ratio ([2]; 200 µM)
METTL3 C500 (UniProt Q86U44) in the list: 0.282	0.171	0.331	-0.165
MED13 C1756 (UniProt Q9UHV7) in the list: 0.022	0.143	0.0632	0.211
